How the values were obtained:
[1] = Fmoc solid-phase peptide synthesis; H-Gly-2-chlorotrityl-polystyene polymer support (tetrapeptide fragment); conditions: whole synthesis, scale of the general procedure 1 mmol (tetrapeptide fragment)
[2] = general procedure: Fmoc solid-phase peptide synthesis; H-Gly-2-chlorotrityl-polystyene polymer support (tetrapeptide fragment); conditions: whole synthesis, scale of the general procedure 1 mmol (tetrapeptide fragment), run 3

Substance: H-His-Gly-Asp-Gly-Ser-Phe-Ser-Asp-Glu-Met-Asn-Thr-Ile-Leu-Asp-Asn-Leu-Ala-Ala-Arg-Asp-Phe-Ile-Asn-Trp-Leu-Ile-Gln-Thr-Lys-Ile-Thr-Asp-OH
- crude HPLC purity ([1]; run 1): 52%
- crude HPLC purity ([1]; run 2): 39%
- crude HPLC purity [2]: 59%
